{
  "source": "patent US4250255A",
  "about": "“Assay method for isoenzyme activity” (Eastman Kodak Company, priority 1977, dated 1981)",
  "key": {"LD1 [1]": {"target": "T1, LD1 (Sus scrofa, UniProt P00336)", "assay": "Effect of cationic amphiphiles on the activity of LDH isoenzymes (Table 1)", "format": "biochemical", "description": "(§1) The assay for LDH activity in both the absence and presence of surfactant was conducted as follows. […] The resulting solution contains approximately 5 units/ml. […] To the equilibrated solution […]. of the enzyme solution was added, and the cuvette was rapidly shaken while covering the top of the cuvette with a small piece of Parafilm® and placed back into the spectrophotometer.\n(§2) Amphiphile solutions were prepared by weighing out a given amount of amphiphile, e.g., 100 mg, and preparing a stock solution in 30 mM sodium phosphate buffer in 100 ml. volumetric flask. Solutions of lower amphiphile concentration were prepared by making the appropriate dilutions from the stock solution.\nA number of cationic amphiphiles were investigated for specific inactivation of LD1 in the presence of LD5 and these compounds are listed in Table 1."}, "LD1 [2]": {"target": "T1, LD1", "assay": "LDH activity assay with amphiphile, LDH isoenzymes", "format": "biochemical, porcine", "parameters": "porcine LDH, LD1, LD2, LD3, LD4 and LD5 in the form of ammonium sulfate suspensions", "details": "read-out: amphiphile concentration for complete inactivation of LD1", "description": "(§3) 3. Beef heart LDH (Sigma Chemical Co., Type III), rabbit muscle LDH (Sigma Chemical Co., Type V) and porcine LDH, LD1, LD2, LD3, LD4 and LD5 in the form of ammonium sulfate suspensions were used for these examples.\nas §1, §2"}, "LD2": {"target": "T2, LD2 (Sus scrofa, UniProt P00336+P00339)", "T2 construct": "porcine LDH, LD1, LD2, LD3, LD4 and LD5 in the form of ammonium sulfate suspensions", "assay": "LDH activity assay with amphiphile, LDH isoenzymes", "format": "biochemical, porcine", "details": "read-out: amphiphile concentration for complete inactivation of LD2", "description": "as §3, §1, §2"}, "LD4": {"target": "T3, LD4 (Sus scrofa, UniProt P00336+P00339)", "T3 construct": "porcine LDH, LD1, LD2, LD3, LD4 and LD5 in the form of ammonium sulfate suspensions", "assay": "LDH activity assay with amphiphile, LDH isoenzymes", "format": "biochemical, porcine", "details": "read-out: amphiphile concentration for complete inactivation of LD4", "description": "as §3, §1, §2"}, "LD3": {"target": "T4, LD3 (Sus scrofa, UniProt P00336+P00339)", "T4 construct": "porcine LDH, LD1, LD2, LD3, LD4 and LD5 in the form of ammonium sulfate suspensions", "assay": "LDH activity assay with amphiphile, LDH isoenzymes", "format": "biochemical, porcine", "details": "read-out: amphiphile concentration for complete inactivation of LD3", "description": "as §3, §1, §2"}, "LD5": {"target": "LD5 (Sus scrofa, UniProt P00339)", "assay": "LDH activity assay with amphiphile, LDH isoenzymes", "format": "biochemical, porcine", "parameters": "LD5 from two different species, i.e., rabbit muscle and hog muscle; from tissue; host or cells: hog muscle", "description": "as §3, §1, §2"}},
  "data": [
    {"smiles": "CCCCCCCCCCCCCCCC[n+]1ccccc1", "note": "[CP, cetylpyridinium bromide]", "values": [
      {"measurement": "IC50", "setting": "LD1 [1]", "value": 70, "unit": "µM"},
      {"measurement": "IC100", "setting": "LD1 [2]", "value": "~100", "unit": "µM"},
      {"measurement": "IC100", "setting": "LD2", "value": "~100", "unit": "µM"},
      {"measurement": "IC100", "setting": "LD4", "value": "~100", "unit": "µM"},
      {"measurement": "IC100", "setting": "LD3", "value": "~100", "unit": "µM"},
      {"measurement": "LD5 activity lost in the assay", "setting": "LD5; CP as the amphiphile, assay as Example 5, FIG. 7", "value": "approximately 30%"},
      {"measurement": "remaining activity at 100 µM", "setting": "LD5; pH 7.4, read-out: LD5 activity relative to a buffer control", "value": 100, "unit": "%"}
    ]}
  ]
}
